# Test results as given in PubChem BioAssay AID493014 (National Center for Advancing Translational Sciences (NCATS), 2011).
# Some of the results follow. Further columns of the screen follow, without active or inactive calls. Compounds called inactive in the main read-out are mostly missing here. Potencies come from curve fits of mixed quality, noted in brackets.
# Assay: qHTS Assay to Find Inhibitors of Chronic Active B-Cell Receptor Signaling
# Details: ABC-DLBCL IkBa-CBG/CBR reporter, luminescence ratio (green luciferase fused to IkBa over red control in TMD8 lymphoma cells), 4 h
# In short: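 Doxycycline induced both beetle luciferases in TMD8 lymphoma cells; IKK-driven degradation limits the IkappaBalpha-fused green signal, while red luminescence normalises for cell number and nonspecific effects. Compounds tested up to 46 uM, 4 hrs.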
# [1] = measured here: CBR red luminescence, cell number
# [2] = measured here: IkBa-CBG green luminescence
Compound,AC50 [1],AC50 [2]
CCOc1ccccc1/C=N/Nc1nc(C)cc(=O)[nH]1,"10 µM [falling, single point]",–
CCn1c(=O)c2cc(C(=O)NCC(OC)OC)sc2c2ccccc21,"10 µM [rising, partial curve, poor fit]",–
CNC(=O)C(=O)Nc1nc(C23CC4CC(CC(C4)C2)C3)cs1,"7.08 µM [rising, partial curve, poor fit]",–
O=C(Nc1cccc2ccccc12)/C(=C/c1ccc([N+](=O)[O-])cc1)NC(=O)c1ccccc1,"31.6 µM [falling, single point]",–
O=C(CS(=O)c1ccc(C(F)(F)F)cc1[N+](=O)[O-])Oc1ccc(Cl)cc1 (stereo unspecified),"11.6 µM [falling, partial curve, poor fit]",–
Cc1ccc(C(=O)OCC(=O)NCc2ccc(F)cc2)o1,"0.146 µM [rising, full curve]",–
CCCn1c(=O)c2c(C(F)(F)F)cc(-c3cccs3)nc2n(CCC)c1=O,"29.1 µM [rising, single point]",–
Cc1ccc(NS(=O)(=O)c2cc(NC(=O)c3cc4c(s3)CCCC4)ccc2C)c(C)c1,"9.2 µM [rising, partial curve, poor fit]",–
CC1CCc2sc(C(=O)OCC(=O)NC(N)=O)cc2C1 (stereo unspecified),"5.01 µM [rising, single point]",–
Cc1cc(N)n(-c2nc(-c3cccnc3)nc3ccccc23)n1,"11.2 µM [falling, partial curve, poor fit]",–
CC(C)(C)OC(=O)N1CCC[C@H]1c1nnc(SCc2c(F)cccc2Cl)o1,"3.16 µM [rising, partial curve, poor fit]",–
COc1ccccc1NS(=O)(=O)c1cccc(N=C2N=C(N)c3ccccc32)c1,"18.4 µM [falling, partial curve, poor fit]",–
COc1cc(/C=C2\SC(=S)N(NC(=O)c3cccnc3)C2=O)ccc1O,"35.5 µM [rising, single point]",–
Nc1ccc(-c2nnc(-c3ccccc3)o2)cc1,"11.2 µM [falling, partial curve]",–
COc1ccccc1C1=NN(C(=S)Nc2ccccc2)C(c2ccco2)C1 (stereo unspecified),"3.98 µM [falling, full curve, poor fit]",–
O=C(Cc1cccs1)N/N=C/c1ccc(OCc2ccccc2)cc1,"32.6 µM [rising, partial curve, poor fit]",–
Cc1c(C(=O)NC2CCCc3ccccc32)oc2ccccc12 (stereo unspecified),"4.61 µM [falling, single point]",–
Cc1[nH]c2ccc3ncccc3c2c1C,"3.26 µM [rising, partial curve]",–
Nc1c(C(=O)Nc2ccc3c(c2)OCCO3)nnn1CCc1ccccc1,"29.1 µM [falling, single point]",–
O=C(Nc1ccccc1)Nc1snnc1C(=O)Nc1cccc(O)c1,"0.562 µM [rising, full curve]",–
Cc1[nH]c2ccccc2c1C(c1ccncc1)N1CCC(C)CC1 (stereo unspecified),"25.1 µM [falling, partial curve, poor fit]",–

# Structures above that have a furan ring, fused or not:
Compound,AC50 [1],AC50 [2]
Cc1ccc(C(=O)OCC(=O)NCc2ccc(F)cc2)o1,"0.146 µM [rising, full curve]",–
COc1ccccc1C1=NN(C(=S)Nc2ccccc2)C(c2ccco2)C1 (stereo unspecified),"3.98 µM [falling, full curve, poor fit]",–
Cc1c(C(=O)NC2CCCc3ccccc32)oc2ccccc12 (stereo unspecified),"4.61 µM [falling, single point]",–

# Going on with the list:

Compound,AC50 [1],AC50 [2]
Cn1c(=O)oc2cc(S(=O)(=O)N3CCN(c4ccccc4F)CC3)ccc21,"35.5 µM [falling, partial curve, poor fit]",–
COc1ccccc1N1C(=O)C=C(Sc2nc(C)cc(C)n2)C1=O,"15.8 µM [falling, partial curve, poor fit]",–
Cc1csc(NC(=O)CSc2nnc(-c3ccccn3)n2-c2ccc(C)c(C)c2)n1,"20 µM [falling, single point]",–
Nc1nc(-c2ccccn2)nc(N)c1Cc1c(F)cccc1Cl,"2 µM [falling, partial curve, poor fit]",–
O=C(N/C(=C/c1ccccc1)C(=O)N1CCCCC1)c1ccc(Br)o1,"6.31 µM [falling, partial curve, poor fit]",–
O=C(Cc1ccc(Cl)c(Cl)c1)Nc1cccc(S(=O)(=O)N2CCOCC2)c1,"35.5 µM [falling, single point]",–
Cc1c(C)c2cc(Cl)c(O)c(CN3CCCC(C)C3)c2oc1=O (stereo unspecified),"20.6 µM [rising, single point]",–
CC(=O)c1cc2c(cc1NC(=O)C1CC1)OCO2,"1.84 µM [falling, full curve, poor fit]","25.9 µM [rising, partial curve, poor fit]"
Cc1ccc(OCCC(=O)N(Cc2ccccc2)c2c(N)n(Cc3ccccc3)c(=O)[nH]c2=O)cc1,"32.6 µM [falling, single point]",–
CC(c1ccccc1)N1CCn2c(nc3cc(NS(C)(=O)=O)ccc32)C1 (stereo unspecified),"4.47 µM [rising, partial curve, poor fit]",–
CCNc1nnc(-c2ccccc2OC)s1,"3.55 µM [rising, partial curve, poor fit]",–
Cc1cccc(N2CCN(C(=O)c3ccncc3)CC2C)c1 (stereo unspecified),"23.1 µM [falling, single point]",–
Cc1cc(C)c(NC(=O)c2ccc3c(c2)NC(=O)C(C)S3)c(C)c1 (stereo unspecified),"20.6 µM [falling, partial curve]",–
Cc1ccc(/C=N/N(C)S(=O)(=O)c2ccc(C)cc2)cc1,"7.08 µM [falling, partial curve, poor fit]",–
Cc1cc(/C=C(\C#N)C(=O)NC2CC2)c(C)[nH]1,"18.4 µM [falling, partial curve]",–
O=C1Nc2cc(Cl)c(Cl)cc2N(O)N1c1cc(Cl)cc(Cl)c1,"0.708 µM [falling, full curve, poor fit]",–
CC(C)(C)C(=O)CSc1ncnc2c1cnn2Cc1ccccc1,"35.5 µM [rising, single point]",–
CCOC(=O)[C@H]1[C@H]2COc3ccc(Br)cc3[C@@H]2N2C(=O)c3cc(OC)c(OC)cc3NC(=O)[C@@]12C,"16.4 µM [falling, partial curve, poor fit]",–
O=C(CN1CCN(S(=O)(=O)c2ccc(Cl)cc2)CC1)Nc1ccc(F)cc1F,"15.8 µM [falling, partial curve, poor fit]",–
N/C(=N\OC(=O)CCC1CCCC1)c1ccc(Cl)cc1,"2.82 µM [rising, partial curve, poor fit]",–
COC(=O)c1ccc(CN(c2ccc(C(=O)O)c(O)c2)S(=O)(=O)c2ccc(Cl)c([N+](=O)[O-])c2)cc1,"12.6 µM [falling, partial curve]","15.8 µM [rising, single point]"

Compound,AC50 [1],AC50 [2]
C=CCN(c1ccccc1OC)S(=O)(=O)c1cccc(C(=O)Nc2nnc(C3CC3)s2)c1,"10.3 µM [falling, partial curve]",–
O=C(N/N=C/C=C\c1ccco1)c1cccnc1,"10 µM [falling, partial curve]",–
Cc1ccnc(NC(=O)c2cccc(S(=O)(=O)Nc3ccc(C)cc3C)c2)c1,"29.1 µM [rising, single point]","16.4 µM [falling, partial curve, poor fit]"
CN(Cc1c(F)cccc1Cl)C(=O)C1CC(=O)N(CCc2ccccc2)C1 (stereo unspecified),"11.2 µM [rising, partial curve, poor fit]",–
Cc1cc(C)c(C)c(S(=O)(=O)N2CCN(C(=S)NCC3CCCO3)CC2)c1C (stereo unspecified),"0.891 µM [rising, partial curve, poor fit]",–
CCc1cc(-c2[nH]ncc2-c2nc3ccccc3n2C)c(O)cc1O,"15.8 µM [falling, partial curve, poor fit]",–
CCCn1c(Nc2nc3ccccc3n2C)nc2ccccc21,"28.2 µM [falling, single point]","25.1 µM [falling, partial curve, poor fit]"
CCS(=O)(=O)Nc1ccc(-c2nc3cccnc3s2)cc1,"11.2 µM [falling, single point]",–
Cc1ccc(NC(=O)CSCC(=O)N2c3ccccc3CCc3ccccc32)cc1,"17.8 µM [falling, single point]",–
Cc1ccc(N2CCN(C(=O)NC3CCCCC3)CC2C)cc1 (stereo unspecified),"6.31 µM [rising, single point]",–
O=S(=O)(c1cccc2cccnc12)N1CCN(c2ccccc2)CC1,"0.116 µM [falling, full curve, poor fit]",–
C=C1N(CCCCCC(=O)O)C(=O)OC12CCCCC2,"1.46 µM [rising, full curve, poor fit]",–
O=c1cc2c(nn1Cc1cccc([N+](=O)[O-])c1)-c1ccccc1CC2,"35.5 µM [falling, single point]",–
CCc1cc(=O)oc2cc(OC(C)=O)cc(OC(C)=O)c12,"7.94 µM [falling, partial curve]",–
CC(C)(C)c1ccc(-c2noc(CCC(N)=O)n2)cc1,"20 µM [falling, partial curve, poor fit]",–
CCCOc1ccc(N2C(=O)CC(NCc3ccncc3)C2=O)cc1 (stereo unspecified),"10 µM [rising, partial curve, poor fit]",–
COc1ccccc1-c1nnc2sc(COc3ccc(F)cc3)nn12,"3.55 µM [falling, full curve, poor fit]",–
CCOC(=O)C1CCN(C(=O)C2c3ccccc3C(=O)N(C)C2c2ccc(OC)cc2)CC1 (stereo unspecified),"7.31 µM [falling, partial curve, poor fit]",–
Cc1c(C(=O)NNC(=S)Nc2ccc(S(N)(=O)=O)cc2)oc2ccccc12,"12.6 µM [falling, partial curve]",–
O=C(Cn1cc(SCc2cccc(Cl)c2)c2ccccc21)N1CCOCC1,"8.2 µM [falling, partial curve]",–
